According to the supplement of paper PMC10849652:
This is one part of the list.

Sequences of proteins named here, by UniProt entry; tags and fusion partners are left off. A change or cut given only in a name is not applied to a line headed by its entry.
UniProt Q92845: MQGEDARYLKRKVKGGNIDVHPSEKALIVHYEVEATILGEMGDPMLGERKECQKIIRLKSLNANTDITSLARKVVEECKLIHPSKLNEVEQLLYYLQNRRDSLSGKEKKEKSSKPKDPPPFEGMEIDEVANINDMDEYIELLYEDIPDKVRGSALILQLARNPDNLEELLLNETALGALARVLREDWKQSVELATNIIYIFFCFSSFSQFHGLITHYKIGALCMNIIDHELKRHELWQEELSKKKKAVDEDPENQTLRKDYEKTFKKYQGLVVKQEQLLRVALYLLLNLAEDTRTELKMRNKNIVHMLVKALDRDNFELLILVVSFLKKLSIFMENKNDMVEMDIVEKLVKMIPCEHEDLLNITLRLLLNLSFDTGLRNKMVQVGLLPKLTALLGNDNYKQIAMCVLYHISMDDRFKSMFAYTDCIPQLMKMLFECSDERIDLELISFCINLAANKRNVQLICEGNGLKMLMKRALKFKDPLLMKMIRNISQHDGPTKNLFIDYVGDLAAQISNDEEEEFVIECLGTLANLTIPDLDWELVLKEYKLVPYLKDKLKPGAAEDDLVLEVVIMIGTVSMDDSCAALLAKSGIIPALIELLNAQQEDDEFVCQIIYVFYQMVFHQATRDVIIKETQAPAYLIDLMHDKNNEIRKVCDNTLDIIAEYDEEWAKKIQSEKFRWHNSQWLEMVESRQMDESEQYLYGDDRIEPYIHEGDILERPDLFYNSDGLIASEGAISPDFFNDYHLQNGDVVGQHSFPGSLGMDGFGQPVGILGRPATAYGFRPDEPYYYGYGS
UniProt O15066: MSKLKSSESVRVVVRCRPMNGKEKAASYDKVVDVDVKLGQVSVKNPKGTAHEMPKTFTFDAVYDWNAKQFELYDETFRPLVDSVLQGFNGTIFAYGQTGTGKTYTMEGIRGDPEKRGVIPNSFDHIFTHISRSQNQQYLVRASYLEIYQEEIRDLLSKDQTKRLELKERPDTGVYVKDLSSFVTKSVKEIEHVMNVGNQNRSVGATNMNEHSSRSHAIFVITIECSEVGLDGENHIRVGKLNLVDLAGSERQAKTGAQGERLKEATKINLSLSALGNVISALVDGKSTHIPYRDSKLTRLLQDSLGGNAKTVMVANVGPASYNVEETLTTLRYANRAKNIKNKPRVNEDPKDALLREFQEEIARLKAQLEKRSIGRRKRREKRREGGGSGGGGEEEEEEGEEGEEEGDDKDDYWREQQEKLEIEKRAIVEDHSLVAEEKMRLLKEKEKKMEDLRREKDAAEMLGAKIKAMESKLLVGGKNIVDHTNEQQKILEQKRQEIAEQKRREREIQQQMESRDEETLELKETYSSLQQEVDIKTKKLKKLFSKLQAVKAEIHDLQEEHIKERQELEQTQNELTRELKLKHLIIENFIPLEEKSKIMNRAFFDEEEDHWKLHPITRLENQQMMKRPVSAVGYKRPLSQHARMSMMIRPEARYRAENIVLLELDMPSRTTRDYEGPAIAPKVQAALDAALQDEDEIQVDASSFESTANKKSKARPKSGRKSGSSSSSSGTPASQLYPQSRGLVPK
UniProt O75037: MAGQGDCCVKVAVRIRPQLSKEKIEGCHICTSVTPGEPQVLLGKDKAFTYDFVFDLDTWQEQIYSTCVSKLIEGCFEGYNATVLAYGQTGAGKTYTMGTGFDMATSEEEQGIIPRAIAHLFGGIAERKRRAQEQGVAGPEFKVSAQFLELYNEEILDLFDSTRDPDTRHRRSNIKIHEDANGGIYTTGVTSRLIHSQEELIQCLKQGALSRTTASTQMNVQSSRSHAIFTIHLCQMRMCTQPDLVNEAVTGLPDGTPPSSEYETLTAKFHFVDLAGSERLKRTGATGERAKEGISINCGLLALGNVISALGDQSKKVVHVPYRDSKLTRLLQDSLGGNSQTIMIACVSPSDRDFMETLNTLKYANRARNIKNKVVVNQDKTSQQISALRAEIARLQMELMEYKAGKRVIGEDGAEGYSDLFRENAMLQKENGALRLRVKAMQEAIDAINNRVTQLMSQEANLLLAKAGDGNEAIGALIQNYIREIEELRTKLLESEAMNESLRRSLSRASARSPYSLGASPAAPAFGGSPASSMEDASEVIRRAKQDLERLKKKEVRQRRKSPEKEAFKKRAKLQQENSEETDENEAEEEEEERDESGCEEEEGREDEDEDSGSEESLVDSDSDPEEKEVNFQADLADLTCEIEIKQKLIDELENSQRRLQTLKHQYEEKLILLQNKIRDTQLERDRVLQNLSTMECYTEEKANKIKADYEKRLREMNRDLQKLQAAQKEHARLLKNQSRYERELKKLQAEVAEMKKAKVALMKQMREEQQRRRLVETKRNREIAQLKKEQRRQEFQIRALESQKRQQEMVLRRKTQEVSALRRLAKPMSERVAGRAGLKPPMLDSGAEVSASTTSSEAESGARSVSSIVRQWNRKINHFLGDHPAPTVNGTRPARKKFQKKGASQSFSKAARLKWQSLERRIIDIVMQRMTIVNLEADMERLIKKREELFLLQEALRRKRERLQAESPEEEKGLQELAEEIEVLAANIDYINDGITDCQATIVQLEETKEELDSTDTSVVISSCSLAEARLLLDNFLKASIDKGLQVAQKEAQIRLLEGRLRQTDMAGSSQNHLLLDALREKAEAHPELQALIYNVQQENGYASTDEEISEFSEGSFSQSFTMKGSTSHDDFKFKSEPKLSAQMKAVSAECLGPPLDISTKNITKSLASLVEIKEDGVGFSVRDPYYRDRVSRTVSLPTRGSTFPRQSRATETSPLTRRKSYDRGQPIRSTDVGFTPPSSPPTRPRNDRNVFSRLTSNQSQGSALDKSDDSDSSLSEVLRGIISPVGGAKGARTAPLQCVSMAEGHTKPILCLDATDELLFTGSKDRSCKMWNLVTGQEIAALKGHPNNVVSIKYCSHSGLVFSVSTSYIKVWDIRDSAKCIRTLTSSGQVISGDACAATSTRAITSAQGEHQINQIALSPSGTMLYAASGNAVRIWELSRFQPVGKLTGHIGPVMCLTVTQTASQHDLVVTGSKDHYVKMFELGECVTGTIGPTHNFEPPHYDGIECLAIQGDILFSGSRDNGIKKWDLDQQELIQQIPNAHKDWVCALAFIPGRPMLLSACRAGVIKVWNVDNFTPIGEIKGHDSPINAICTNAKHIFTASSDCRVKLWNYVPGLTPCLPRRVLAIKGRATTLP
UniProt Q6P597: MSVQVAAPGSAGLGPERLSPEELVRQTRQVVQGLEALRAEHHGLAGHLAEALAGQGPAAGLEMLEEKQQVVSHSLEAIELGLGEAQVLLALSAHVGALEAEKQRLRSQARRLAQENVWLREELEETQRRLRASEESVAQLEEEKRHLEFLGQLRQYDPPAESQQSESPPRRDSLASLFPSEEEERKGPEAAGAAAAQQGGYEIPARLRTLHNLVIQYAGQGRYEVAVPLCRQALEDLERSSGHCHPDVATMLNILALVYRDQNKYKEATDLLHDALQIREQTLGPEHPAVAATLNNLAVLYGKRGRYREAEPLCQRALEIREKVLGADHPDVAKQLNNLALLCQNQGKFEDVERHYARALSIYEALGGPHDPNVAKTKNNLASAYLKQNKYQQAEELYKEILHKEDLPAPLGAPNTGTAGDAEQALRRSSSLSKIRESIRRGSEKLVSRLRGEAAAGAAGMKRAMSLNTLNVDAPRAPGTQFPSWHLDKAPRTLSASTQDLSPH
UniProt Q8IXQ5, whole entry, looked up: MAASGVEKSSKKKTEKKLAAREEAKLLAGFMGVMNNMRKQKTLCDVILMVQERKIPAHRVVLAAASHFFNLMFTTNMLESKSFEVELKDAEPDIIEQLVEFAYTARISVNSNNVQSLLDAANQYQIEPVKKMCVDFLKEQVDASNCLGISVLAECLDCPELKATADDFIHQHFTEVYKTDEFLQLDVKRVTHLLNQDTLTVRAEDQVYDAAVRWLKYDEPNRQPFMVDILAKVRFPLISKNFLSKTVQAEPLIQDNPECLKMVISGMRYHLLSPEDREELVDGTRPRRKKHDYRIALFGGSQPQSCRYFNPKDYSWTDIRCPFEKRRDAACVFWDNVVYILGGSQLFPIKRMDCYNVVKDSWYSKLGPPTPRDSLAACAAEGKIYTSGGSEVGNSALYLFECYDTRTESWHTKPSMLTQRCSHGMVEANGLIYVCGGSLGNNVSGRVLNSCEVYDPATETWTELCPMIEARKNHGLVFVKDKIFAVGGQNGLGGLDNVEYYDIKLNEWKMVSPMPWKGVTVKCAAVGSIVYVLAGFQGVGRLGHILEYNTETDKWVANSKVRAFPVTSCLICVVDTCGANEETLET
UniProt Q53HC5: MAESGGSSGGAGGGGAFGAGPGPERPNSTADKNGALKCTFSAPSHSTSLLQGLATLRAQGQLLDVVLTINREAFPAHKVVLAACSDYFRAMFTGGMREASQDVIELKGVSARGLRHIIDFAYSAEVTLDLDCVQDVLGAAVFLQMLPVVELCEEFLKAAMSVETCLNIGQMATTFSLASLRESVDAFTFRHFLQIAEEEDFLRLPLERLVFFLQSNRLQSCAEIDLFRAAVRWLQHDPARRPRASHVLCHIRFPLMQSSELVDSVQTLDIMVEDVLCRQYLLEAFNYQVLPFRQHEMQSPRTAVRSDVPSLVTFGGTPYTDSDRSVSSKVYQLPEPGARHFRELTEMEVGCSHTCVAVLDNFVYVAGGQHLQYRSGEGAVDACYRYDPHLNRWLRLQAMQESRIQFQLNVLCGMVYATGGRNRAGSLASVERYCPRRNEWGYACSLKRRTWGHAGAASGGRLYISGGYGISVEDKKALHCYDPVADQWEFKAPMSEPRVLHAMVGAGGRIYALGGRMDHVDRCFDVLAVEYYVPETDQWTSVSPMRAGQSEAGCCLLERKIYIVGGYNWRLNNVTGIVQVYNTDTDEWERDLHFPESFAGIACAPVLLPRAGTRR

What was measured:
Test in all cases: log2 fold change, soluble protein after heating vs DMSO (PISA); higher = thermal stabilisation; K562 lysate, 10 uM; active = over 0.2 and 3.5 SD of the protein, either way, in both replicates (recomputed)
alvocidib = compound: CN1CC[C@H](c2c(O)cc(O)c3c(=O)cc(-c4ccccc4Cl)oc23)[C@H](O)C1 [alvocidib]
Procedure, shortened: (§1)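 Following dounce homogenisation of K562 pellets in PBS pH 7.4 with 1 mM MgCl2, crude extract at 1 mg/mL protein was incubated for 30 min with 10 μM compound. Aliquots were then heated for 3 min over 48°C-58°C and pooled, NP-40 was added to 0.5% at 4°C, and soluble protein was recovered as the supernatant at 21,000xg for 90 min. Channel-sum-equalised TMTpro 16plex LC-MS/MS quantified this protein. Each value, from duplicates, is a log-two fold change in thermal stability relative to solvent controls.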

Tubastatin A = compound: CN1CCc2c(c3ccccc3n2Cc2ccc(C(=O)NO)cc2)C1 [Tubastatin A]
Procedure, shortened: as §1

[1] = compound: CNc1nc(-c2ccc3c(N)n[nH]c3c2)cc(N2C[C@@H](C(=O)NC3CCCCC3)CC[C@H]2C)n1
Procedure, shortened: as §1

encorafenib = compound: COC(=O)N[C@@H](C)CNc1nccc(-c2cn(C(C)C)nc2-c2cc(Cl)cc(NS(C)(=O)=O)c2F)n1 [encorafenib]
Procedure, shortened: as §1

[2] = compound: COC(=O)[C@H](CCSC)NC(=O)C1=C(C=C(C=C1)NC[C@H](CS)N)C2=CC=CC=C2
Procedure, shortened: as §1

alisertib = compound: COc1cc(Nc2ncc3c(n2)-c2ccc(Cl)cc2C(c2c(F)cccc2OC)=NC3)ccc1C(=O)O [alisertib]
Procedure, shortened: as §1

gefitinib = compound: COc1cc2ncnc(Nc3ccc(F)c(Cl)c3)c2cc1OCCCN1CCOCC1 [gefitinib]
Procedure, shortened: as §1

pictilisib = compound: CS(=O)(=O)N1CCN(Cc2cc3nc(-c4cccc5[nH]ncc45)nc(N4CCOCC4)c3s2)CC1 [pictilisib]
Procedure, shortened: as §1

crizotinib = compound: C[C@@H](Oc1cc(-c2cnn(C3CCNCC3)c2)cnc1N)c1c(Cl)ccc(F)c1Cl [crizotinib]
Procedure, shortened: as §1

[3] = compound: C[C@H](C1=CC=C(C=C1)C(=O)NC2=C3C=CNC3=NC=C2)N
Procedure, shortened: as §1

duvelisib = compound: C[C@H](Nc1ncnc2nc[nH]c12)c1cc2cccc(Cl)c2c(=O)n1-c1ccccc1 [duvelisib]
Procedure, shortened: as §1

gandotinib = compound: Cc1cc(Nc2cc(CN3CCOCC3)c3nc(C)c(Cc4ccc(Cl)cc4F)n3n2)n[nH]1 [gandotinib]
Procedure, shortened: as §1

tozasertib = compound: Cc1cc(Nc2cc(N3CCN(C)CC3)nc(Sc3ccc(NC(=O)C4CC4)cc3)n2)n[nH]1 [tozasertib]
Procedure, shortened: as §1

doramapimod = compound: Cc1ccc(-n2nc(C(C)(C)C)cc2NC(=O)Nc2ccc(OCCN3CCOCC3)c3ccccc23)cc1 [doramapimod]
Procedure, shortened: as §1

bafetinib = compound: Cc1ccc(NC(=O)c2ccc(CN3CC[C@H](N(C)C)C3)c(C(F)(F)F)c2)cc1Nc1nccc(-c2cncnc2)n1 [bafetinib]
Procedure, shortened: as §1

[4] = compound: Cc1cccc(CC(=O)N2CCc3c2ccc(-c2cn(C)c4ncnc(N)c24)c3F)n1
Procedure, shortened: as §1

[5] = compound: CNC(=O)C1=CC=CC=C1NC2=NC(=NC=C2Cl)NC3=C(C=C(C=C3)N4CCOCC4)OC
Procedure, shortened: as §1

defactinib = compound: CNC(=O)c1ccc(Nc2ncc(C(F)(F)F)c(NCc3nccnc3N(C)S(C)(=O)=O)n2)cc1 [defactinib]
Procedure, shortened: as §1

[6] = compound: COc1cc2nc(-c3cc(F)ccc3O)nc(N[C@@H]3CNC[C@H]3C(C)(C)O)c2cc1OC
Procedure, shortened: as §1

lapatinib = compound: CS(=O)(=O)CCNCc1ccc(-c2ccc3ncnc(Nc4ccc(OCc5cccc(F)c5)c(Cl)c4)c3c2)o1 [lapatinib]
Procedure, shortened: as §1

Measured: log2 fold change

KIFAP3 (UniProt Q92845)
inactive: alvocidib 0.097 | Tubastatin A -0.024 | [1] 0.048 | encorafenib 0.043 | [2] -0.261 | alisertib -0.032 | gefitinib -0.196 | pictilisib 0.054 | crizotinib -0.03 | [3] -0.019 | duvelisib -0.223 | gandotinib -0.113 | tozasertib -0.332 | doramapimod 0.114 | bafetinib 0.147 | [4] -0.071

KIF3B (UniProt O15066)
inactive: alvocidib -0.286 | Tubastatin A -0.165 | [5] 0.023 | defactinib 0.037 | encorafenib 0.005 | [2] 0.227 | alisertib 0.017 | [6] -0.069 | gefitinib -0.004 | lapatinib -0.016 | pictilisib -0.087 | crizotinib -0.009 | [3] -0.257 | gandotinib 0.126 | tozasertib -0.099 | doramapimod -0.021 | bafetinib -0.12 | [4] 0.004

KIF21B (UniProt O75037)
inactive: alvocidib -0.065 | Tubastatin A 0.115 | defactinib -0.119 | [1] 0.205 | encorafenib -0.047 | [2] 0.084 | alisertib -0.224 | [6] 0.155 | gefitinib 0.201 | lapatinib -0.092 | pictilisib 0.102 | crizotinib -0.215 | [3] -0.441 | duvelisib -0.001 | gandotinib -0.203 | tozasertib -0.085 | doramapimod 0.146 | bafetinib -0.239 | [4] 0.029

KLC3 isoform 3 (UniProt Q6P597)
inactive: alvocidib -0.014 | encorafenib 0.011 | [2] 0.037 | alisertib 0.078 | [6] 0.053 | gefitinib 0.009 | lapatinib 0.075 | pictilisib -0.006 | crizotinib 0.025 | [3] 0.112 | gandotinib 0.083 | tozasertib 0.09 | doramapimod -0.01 | bafetinib 0.546 | [4] -0.078

KLHL7 isoform 3 (UniProt Q8IXQ5)
inactive: alvocidib -0.047 | Tubastatin A 0.075 | defactinib 0.047 | encorafenib 0.07 | [2] 0.115 | alisertib 0.058 | [6] -0.042 | gefitinib -0.069 | lapatinib 0.054 | crizotinib -0.07 | [3] -0.096 | gandotinib 0.059 | tozasertib 0.009 | doramapimod 0.039 | [4] -0.289

KLHL26 (UniProt Q53HC5)
inactive: alvocidib 0.083 | [5] -0.079 | [1] -0.059 | alisertib 0.057 | [6] -0.063 | gefitinib 0.018 | lapatinib 0.026 | crizotinib -0.104 | [3] -0.229 | duvelisib 0.246 | gandotinib 0.033 | doramapimod 0.051 | [4] -0.164
